Percent effect of library compounds

Source: ChEMBL document CHEMBL3988442, “University of Dundee, Small-Polar-MMV Screening Library” (2021).

Each number is a percent effect as filed. The controls that fix the scale are not given in the record; negative values are as filed. This is an unselected part of the compounds tested.

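Whole-cell growth test on Mycobacterium tuberculosis, read after 3 days in glucose-containing 7H9 medium; the read-out is not stated. Tested at 500 µM. The record gives no direction; compounds that gave an IC50 in retests scored well above the rest, so higher reads as more growth inhibition. About 18,000 compounds were tested under these conditions; 7.9% (about 1,400) showed 50% or more at least once.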

| compound | Percent Effect |
|---|---|
| `Cc1csc(C(=O)N2CC[C@H](O)C2)c1I` | 37.73% |
| `Cc1nnc(CN2CCC(NC(=O)C3CC3)CC2)o1` | -2.902% |
| `CCN(C(=O)COc1ccccc1Cl)[C@H]1COC[C@@H]1O` | 20.55% |
| `Cc1noc(Cl)c1CC(=O)N1CCN(C)CC1C` (stereo not given) | -9.255% |
| `CN(C)CCNC(=O)C1Cc2ccccc2CN1` (stereo not given) | 19.21% |
| `N[C@@H]1C[C@H]1c1cccc(F)c1F` | 46.79% |
| `CC(C)(C)c1cnnn1-c1nonc1N` | 12.49% |
| `Cc1cc(=O)[nH]c(CCNC(=O)[C@H]2CC[C@@H](N)C2)n1` | -5.914% |
| `Cn1c(CN2CCSCC2)cc(=O)n(C)c1=O` | 4.333% |
| `CC(C(=O)NC1CC1)N1CCC(N2CC=CC2)CC1` (stereo not given) | 5.564% |
| `COc1cc(C(=O)NC[C@@H](O)c2ccc(C)cc2)on1` | 66.41% |
| `CC(=O)Nc1ccc(C(=O)NCc2ccncc2)cc1` | 0.08326% |
| `CCCN(C)C(CO)c1ccc(OC)cc1` (stereo not given) | 4.154% |
| `CCCn1nccc1C(=O)N1CCn2cncc2C1` | -0.4258% |
| `Cc1ccc(NS(=O)(=O)N(C)C)c(C)c1` | 46.8% |
| `CN(C)S(=O)(=O)CCCn1cnc2ccccc21` | 31.83% |
| `O=C(c1cccc(-n2cccn2)n1)N1CCCC1` | 61.63% |
| `CC(N)c1nncn1C(C)C` (stereo not given) | 11.28% |
| `Cc1nnc(CN2CCN(CC(O)C(C)(C)C)CC2)o1` (stereo not given) | 8.189% |
| `CCOC(=O)CNC(=O)c1nc2ncccn2n1` | -11.85% |
| `COc1ccccc1NC(=O)c1ccc(C)nc1` | 51.59% |
| `CCCn1nnnc1Cn1c(=O)oc2ccccc21` | 35.08% |
| `Cc1nnc(SCCNC(=O)CC2C=CS(=O)(=O)C2)s1` (stereo not given) | -5.401% |
| `O=C(c1ccccc1-n1cccn1)N1CCSCC1` | 14.15% |
| `Cn1cc(NC(=O)CC(C)(C)C)ccc1=O` | -6.121% |
| `CCCC(=O)N1CCN(C(=O)NCC)CC1` | -1.059% |
| `Cc1nnc(NC(=O)c2ccc3c(c2)OCCO3)s1` | -12.01% |
| `CNC(=O)CS(=O)(=O)Cc1cc(=O)n(C)c(=O)n1C` | 8.536% |
| `CC(C)OCCN1CCC(O)CC1` | -3.593% |
| `CCc1cccc(NC(N)=O)c1` | 12.09% |
| `CN(C)C(=O)CNC(=O)c1sccc1Br` | 13.38% |
| `CC1Cc2cc(CO)ccc2O1` (stereo not given) | 0.496% |
| `CCN(C1CCN(c2cccc(C)n2)CC1)S(C)(=O)=O` | 38.67% |
| `COc1ccc2[nH]c(CCCN)nc2c1` | 12.74% |
| `CC1C(=O)CCCN1C(=O)OC(C)(C)C` (stereo not given) | 5.654% |
| `CN1CCN(C(=O)Cn2ccc(N)n2)CC1` | -5.576% |
| `NCc1ccc(OC2CCCC2)nc1` | 3.912% |
| `CN(C)CC1(O)CCCN(C(=O)c2n[nH]c(N)c2Cl)C1` (stereo not given) | -5.869% |
| `CC(C)(C)C(=O)Nc1ccc(Cl)c(C(N)=O)c1` | 38.97% |
| `Cc1nc(C2CC(O)C2)cc(N2CC[C@@H](O)C2)n1` (stereo not given in full) | 16.41% |
| `CC(C)(C)C(=O)NCC(=O)N1CCOCC1` | -11.55% |
| `CNC(=O)C(CC(C)C)NC(=O)c1ccccn1` (stereo not given) | 4.143% |
| `COc1ccc(Br)c(S(=O)(=O)NCCCN)c1` | 44.59% |
| `COC(C)(C)c1noc(-c2cccc3c2OCO3)n1` | 5.7% |
| `N#Cc1ccc(NCCNC(=O)c2ccc(Cl)s2)nc1` | -0.7032% |
| `CC(=O)N1CCN(C(=O)c2cncnc2C)CC(O)C1` (stereo not given) | 9.764% |
| `Cc1noc(C)c1CC(=O)N(C)Cc1cccnc1` | 3.32% |
| `CC(C)CCC(=O)N1CCNC(=O)C1` | -7.96% |
| `O=C(CNc1ncnc2sccc12)N1CCCC1` | -8.964% |
| `O=C1CN(C(=O)c2ccn(-c3ccccc3)n2)CCN1` | -5.772% |
| `CCn1ncnc1CSCC(=O)Nc1nc(C)cs1` | 41.74% |
| `COCCc1noc(C2CCN(CC(N)=O)CC2)n1` | -5.264% |
| `Cc1noc([C@@H]2CN(C3CCCC3)C[C@H]2CO)n1` | -13.4% |
| `OCC1CCN(C2CCCCC2)C1` (stereo not given) | 33.93% |
| `CCc1cc(N2CCNCC2)ncn1` | 8.07% |
| `CCC1c2nccn2CCCN1C(=O)c1ocnc1C` (stereo not given) | 19.47% |
| `CCN1CCCN(c2nc(C3CC3)no2)CC1` | 14.38% |
| `O=C(NCC1(CO)COC1)C1=Cc2ccccc2OC1` | -4.931% |
| `CN(CC(N)=O)Cc1cccc(OCC(F)(F)F)c1` | 40.43% |
| `N#Cc1cccc([C@H]2C[C@H](N)C2)c1` | 33.13% |
| `O=S(=O)(CC1CCOCC1)NCCCO` | -5.55% |
| `COc1cccc(CNC2CCN(C(C)=O)CC2)c1` | 23.19% |
| `COCC(C)Nc1cccc(CS(C)(=O)=O)c1` (stereo not given) | 2.353% |
| `CCCc1nc(C(=O)N2CCC3(CCCNC3)C2)cs1` (stereo not given) | 8.183% |
| `O=C(CSc1ccncc1)NCCN1CCCC1=O` | 6.52% |
| `CN(c1ccc(O)cc1)S(=O)(=O)c1ccco1` | 45.06% |
| `CNCCCNC(=O)CCc1ccsc1` | 7.075% |
| `CS(=O)(=O)Cc1ccc(C(=O)Nc2ccccc2)cc1` | -2.403% |
| `CCCc1nc(CNC(=O)Cc2ccccn2)cs1` | 42.96% |
| `CCS(=O)(=O)c1ccc(CN)cc1` | 0.4429% |
| `CS(=O)(=O)NCC(=O)NC(C#N)c1ccc(Cl)c(Cl)c1` (stereo not given) | 29.26% |
| `COCc1cccc(C(=O)N2CC[C@@](C)(O)[C@@H](O)C2)n1` | -3.103% |
| `CCCN(C(=O)c1ccc(F)cc1)C1CCS(=O)(=O)C1` (stereo not given) | 11.86% |
| `Cn1ccnc1C1CCCN1C(=O)c1ccccc1F` (stereo not given) | 2.557% |
| `NS(=O)(=O)NCC1(c2ccc(Br)cc2)CCOCC1` | 18.71% |
| `N#CCCCn1nnc(-c2ccccc2)n1` | 60.44% |
| `CC(C)(C)OC(=O)NCC1CC(C(N)=O)=NO1` (stereo not given) | -2.253% |
| `O=C(NCC(O)C1CCOCC1)c1c(F)cccc1Cl` (stereo not given) | -5.979% |
| `CSc1c(F)cc(NC(=O)NCCO)cc1F` | 50.24% |
| `Cc1cc(N(C)C)n2nccc2n1` | 9.843% |

The first 4 entries again:

{"compound": "Cc1csc(C(=O)N2CC[C@H](O)C2)c1I", "Percent Effect": 37.73}
{"compound": "Cc1nnc(CN2CCC(NC(=O)C3CC3)CC2)o1", "Percent Effect": -2.902}
{"compound": "CCN(C(=O)COc1ccccc1Cl)[C@H]1COC[C@@H]1O", "Percent Effect": 20.55}
{"compound": "Cc1noc(Cl)c1CC(=O)N1CCN(C)CC1C", "stereo": "stereo not given", "Percent Effect": -9.255}